Assay results as given in patent US10285966B2, “10-hydroxy-cis-12-octadecenoic acid alkyl ester and use thereof” (NITTO PHARMACEUTICAL INDUSTRIES, LTD., priority 2015, dated 2019).
“Also recorded” adds a separate entry of the source.

Test: Sensory evaluation of flavor (taste test) by 10 panelists
Conditions: for total evaluation / Five tastes: bitter taste / Five tastes: saltiness / Five tastes: sour taste / Five tastes: sweetness / Five tastes: umami taste / acridity / oil odor: 5 mg sample ingested, average score of 10 panelists; for total evaluation: delicious (5 points) - brackish (1 point); for Five tastes: bitter taste / Five tastes: saltiness / Five tastes: sour taste / Five tastes: sweetness / Five tastes: umami taste: strong (5 points) - weak (1 point); for acridity / oil odor: weak (5 points) - strong (1 point)
Description: A sensory evaluation of the flavor of compound of Example 1, and HYA of Comparative Example was performed by 10 panelists (hereinafter to be referred to as taste test). The panelists ingested 5 mg of a sample (sample name was kept secret to the panelists during the test), evaluated five tastes (umami taste, bitter taste, sour taste, saltiness, sweetness) respectively for the acridity and oil odor, and made total evaluation.
Each evaluation was marked in the following 5 grades and an average score of the 10 panelists was calculated.
Five tastes (umami taste, bitter taste, sour taste, saltiness, sweetness): […]

[1] = taste test, result as worded in text

Row | SMILES | total evaluation [points] | Five tastes: bitter taste [points] | Five tastes: saltiness [points] | Five tastes: sour taste [points] | Five tastes: sweetness [points] | Five tastes: umami taste [points] | acridity [points] | oil odor [points] | acridity (in words) [1] | oil odor (in words) [1] | total evaluation (in words) [1] | umami taste (in words) [1]
1 | CCCCC/C=C\CC(O)CCCCCCCCC(=O)O (stereo not drawn) [HYA, 10-hydroxy-cis-12-octadecenoic acid] | 1.5 | 3.5 | 1.5 | 1.5 | 1.0 | 1.5 | 1.0 | 3.0 | strong acridity | moderate oil odor | – | –
2 | CCCCC/C=C\CC(O)CCCCCCCCC(=O)OCC (stereo not drawn) [Example 1, ethyl 10-hydroxy-cis-12-octadecenoate] | 3.5 | 2.5 | 2.0 | 1.5 | 3.0 | 3.0 | 3.0 | 3.5 | remarkably reduced acridity; also recorded: no acridity | somewhat reduced oil odor | high | strong umami taste
